Results are given in words; binding and its absence hold for the method and conditions named. Some entries that bind do so weakly or less than the wild type.
Experiments:
[1] = biological target: T1, α5β1 integrin on brain microvascular endothelial cells (mouse) (UniProt P11688+P09055); test: co-immunocytochemistry of brain endothelial cells after 30 minutes of DV treatment (FIG. 4F legend)
[2] = biological target: T1, α5β1 integrin on brain microvascular endothelial cells (mouse); test: co-immunocytochemistry (anti-α5β1 and anti-HIS) on brain endothelial cells

Sequences of proteins named here, by UniProt entry; tags and fusion partners are left off. A change or cut given only in a name is not applied to a line headed by its entry.
UniProt P11688: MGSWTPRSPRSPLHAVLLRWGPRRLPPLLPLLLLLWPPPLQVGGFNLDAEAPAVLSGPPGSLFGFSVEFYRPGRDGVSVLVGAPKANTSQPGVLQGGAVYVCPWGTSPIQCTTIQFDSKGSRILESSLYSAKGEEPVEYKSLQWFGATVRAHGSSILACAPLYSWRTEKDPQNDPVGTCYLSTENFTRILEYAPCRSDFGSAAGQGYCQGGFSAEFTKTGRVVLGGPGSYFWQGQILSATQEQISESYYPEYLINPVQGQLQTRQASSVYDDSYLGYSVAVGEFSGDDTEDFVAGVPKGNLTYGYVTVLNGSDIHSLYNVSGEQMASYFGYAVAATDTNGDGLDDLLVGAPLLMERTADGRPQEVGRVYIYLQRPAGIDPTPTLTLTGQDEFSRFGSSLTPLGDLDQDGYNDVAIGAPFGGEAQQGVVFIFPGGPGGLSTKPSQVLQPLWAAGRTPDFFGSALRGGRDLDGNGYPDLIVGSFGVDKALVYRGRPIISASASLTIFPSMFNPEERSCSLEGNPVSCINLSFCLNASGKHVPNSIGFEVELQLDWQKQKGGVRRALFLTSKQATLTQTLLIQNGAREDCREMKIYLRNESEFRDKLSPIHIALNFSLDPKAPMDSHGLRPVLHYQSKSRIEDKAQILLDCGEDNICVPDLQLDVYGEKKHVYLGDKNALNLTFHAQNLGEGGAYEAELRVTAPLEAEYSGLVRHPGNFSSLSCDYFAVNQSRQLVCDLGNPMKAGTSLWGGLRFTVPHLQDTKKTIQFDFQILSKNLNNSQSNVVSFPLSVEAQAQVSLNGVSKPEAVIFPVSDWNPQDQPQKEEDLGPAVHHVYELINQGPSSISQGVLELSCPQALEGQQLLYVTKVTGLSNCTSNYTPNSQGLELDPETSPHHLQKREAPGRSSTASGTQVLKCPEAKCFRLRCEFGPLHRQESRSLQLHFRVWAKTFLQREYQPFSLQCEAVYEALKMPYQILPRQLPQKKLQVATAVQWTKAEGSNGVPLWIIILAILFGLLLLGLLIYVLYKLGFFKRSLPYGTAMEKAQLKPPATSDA
UniProt P09055: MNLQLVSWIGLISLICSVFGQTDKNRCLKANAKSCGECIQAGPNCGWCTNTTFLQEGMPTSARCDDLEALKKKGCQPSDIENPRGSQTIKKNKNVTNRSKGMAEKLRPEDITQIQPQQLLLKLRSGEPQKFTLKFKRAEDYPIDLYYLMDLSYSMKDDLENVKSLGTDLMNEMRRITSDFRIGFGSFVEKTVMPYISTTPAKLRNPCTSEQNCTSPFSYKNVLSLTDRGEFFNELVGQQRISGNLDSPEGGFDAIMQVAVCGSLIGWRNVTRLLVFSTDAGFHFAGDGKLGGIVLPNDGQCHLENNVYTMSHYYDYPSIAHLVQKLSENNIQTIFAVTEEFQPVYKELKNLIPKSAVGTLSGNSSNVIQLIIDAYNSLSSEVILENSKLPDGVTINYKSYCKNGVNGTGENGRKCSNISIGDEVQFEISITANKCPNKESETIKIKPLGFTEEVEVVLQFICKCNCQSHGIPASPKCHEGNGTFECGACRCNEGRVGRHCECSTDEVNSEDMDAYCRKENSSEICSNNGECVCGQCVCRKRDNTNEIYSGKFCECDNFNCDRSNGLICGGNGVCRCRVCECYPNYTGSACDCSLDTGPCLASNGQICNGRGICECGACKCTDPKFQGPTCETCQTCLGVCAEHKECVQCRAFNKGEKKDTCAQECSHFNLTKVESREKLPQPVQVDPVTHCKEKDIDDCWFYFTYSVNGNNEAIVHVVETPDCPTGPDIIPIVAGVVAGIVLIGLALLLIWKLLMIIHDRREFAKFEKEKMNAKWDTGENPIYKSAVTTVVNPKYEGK

binding [1]: binds | binding [2]: binds
Substance: Human perlecan Domain V (DV), recombinant, with C-terminal 6×His tag (from UniProt P98160 3687-4391) (ligand)
